Reference: PubChem BioAssay AID720505 (Drosophila RNAi Screening Center, 2013)
Purpose: 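Fly regulators or components of the CRAC channel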 (primary screen). Cells: Drosophila S2R+ cells. Reagent: long dsRNA against Drosophila genes. Challenge: thapsigargin (2 µM) in calcium-free buffer to empty internal stores, then 2 mM calcium added back. Measured: 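Stores emptied by 2 µM thapsigargin without calcium, then 2 mM calcium re-added; fluo-4 fluorescence followed by FLIPR in 384-well plates, per-well averaged endpoint, raw; two screen passes, some wells retested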. Reading the numbers: calcium signal and retest calcium signal: higher = more calcium entry after store depletion. Rule for the call: 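About 1500 genes called as lowering calcium entry, by varying amounts, judged against per-plate control wells with STIM1 as positive and Rho1 as negative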. Calls: active = called as lowering calcium entry; inactive = not called.
The screen tested about 20,000 reagents; shown is a random part of those that have a named target and a result. Over the whole deposit, about 2,100 (10%) were called active. 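Raw plate signals without normalisation; calls rest on control-based scores that were not deposited; replicate 2 separates called from uncalled poorly.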 Reagent sequences are not shown. Not stated in the record: the amount of reagent, the time to read-out.

{"target gene": "mah (mahogany)", "dsRNA": "DRSC14645", "calcium signal, replicate 1": 175, "calcium signal, replicate 2": 131, "Call": "inactive"}
{"target gene": "Jhbp11 (Juvenile hormone binding protein 11)", "dsRNA": "DRSC15183", "calcium signal, replicate 1": 174, "calcium signal, replicate 2": 141, "Call": "inactive"}
{"target gene": "mad2", "dsRNA": "DRSC10274", "calcium signal, replicate 1": 119, "calcium signal, replicate 2": 96.2, "Call": "inactive"}
{"target gene": "CG42784", "dsRNA": "DRSC02534", "calcium signal, replicate 1": 74, "calcium signal, replicate 2": 111, "Call": "inactive"}
{"target gene": "CG42784", "dsRNA": "DRSC02535", "calcium signal, replicate 1": 128, "calcium signal, replicate 2": 106, "Call": "inactive"}
{"target gene": "CG42784", "dsRNA": "DRSC22272", "calcium signal, replicate 1": 120, "calcium signal, replicate 2": 154, "Call": "inactive"}
{"target gene": "CG42784", "dsRNA": "DRSC22804", "calcium signal, replicate 1": 72.5, "calcium signal, replicate 2": 128, "Call": "inactive"}
{"target gene": "CG42784", "dsRNA": "DRSC23000", "calcium signal, replicate 1": 150, "calcium signal, replicate 2": 145, "Call": "inactive"}
{"target gene": "Odj (Oddjob)", "dsRNA": "DRSC16234", "calcium signal, replicate 1": 140, "calcium signal, replicate 2": 240, "Call": "inactive"}
{"target gene": "Grl43a (Gustatory receptor-like 43a)", "dsRNA": "DRSC06383", "calcium signal, replicate 1": 129, "calcium signal, replicate 2": 164, "Call": "inactive"}

2 successive entries already listed, for reference:
{"target gene": "CG42784", "dsRNA": "DRSC02534", "calcium signal, replicate 1": 74, "calcium signal, replicate 2": 111, "Call": "inactive"}
{"target gene": "CG42784", "dsRNA": "DRSC02535", "calcium signal, replicate 1": 128, "calcium signal, replicate 2": 106, "Call": "inactive"}

The listing continues:
{"target gene": "CG4743", "dsRNA": "DRSC15636", "calcium signal, replicate 1": 180, "calcium signal, replicate 2": 110, "Call": "inactive"}
{"target gene": "Gr28b (Gustatory receptor 28b)", "dsRNA": "DRSC02291", "calcium signal, replicate 1": 170, "calcium signal, replicate 2": 80.9, "Call": "inactive"}
{"target gene": "Gr28b (Gustatory receptor 28b)", "dsRNA": "DRSC02292", "calcium signal, replicate 1": 180, "calcium signal, replicate 2": 92, "Call": "inactive"}
{"target gene": "Brms1 (BRMS1 transcriptional repressor)", "dsRNA": "DRSC19896", "calcium signal, replicate 1": 95.4, "calcium signal, replicate 2": 86, "Call": "inactive"}
{"target gene": "CG4476", "dsRNA": "DRSC10424", "calcium signal, replicate 1": 108, "calcium signal, replicate 2": 99.8, "Call": "inactive"}
{"target gene": "SERCA (Sarco/endoplasmic reticulum Ca(2+)-ATPase)", "dsRNA": "DRSC04600", "calcium signal, replicate 1": 141, "calcium signal, replicate 2": 103, "Call": "inactive"}
{"target gene": "CG43333", "dsRNA": "DRSC01917", "calcium signal, replicate 1": 93.6, "calcium signal, replicate 2": 155, "Call": "inactive"}
{"target gene": "CG43333", "dsRNA": "DRSC23265", "calcium signal, replicate 1": 139, "calcium signal, replicate 2": 106, "Call": "inactive"}
{"target gene": "CG1074", "dsRNA": "DRSC12143", "calcium signal, replicate 1": 158, "calcium signal, replicate 2": 82.2, "retest calcium signal, replicate 1": 94.1, "retest calcium signal, replicate 2": 94, "Call": "inactive"}
{"target gene": "pelo (pelota)", "dsRNA": "DRSC03588", "calcium signal, replicate 1": 98.8, "calcium signal, replicate 2": 90.5, "Call": "inactive"}
{"target gene": "Gdap1", "dsRNA": "DRSC10437", "calcium signal, replicate 1": 110, "calcium signal, replicate 2": 112, "Call": "inactive"}
{"target gene": "Mst98Cb (Male-specific RNA 98Cb)", "dsRNA": "DRSC16750", "calcium signal, replicate 1": 142, "calcium signal, replicate 2": 169, "retest calcium signal, replicate 1": 6364, "retest calcium signal, replicate 2": 153, "Call": "inactive"}
{"target gene": "Mst98Cb (Male-specific RNA 98Cb)", "dsRNA": "DRSC22495", "calcium signal, replicate 1": 62.8, "calcium signal, replicate 2": 169, "Call": "inactive"}
{"target gene": "Pak3", "dsRNA": "DRSC15017", "calcium signal, replicate 1": 120, "calcium signal, replicate 2": 227, "Call": "inactive"}
{"target gene": "CG7768", "dsRNA": "DRSC10914", "calcium signal, replicate 1": 76.9, "calcium signal, replicate 2": 121, "Call": "inactive"}
{"target gene": "CG8852", "dsRNA": "DRSC00719", "calcium signal, replicate 1": 151, "calcium signal, replicate 2": 85.5, "Call": "inactive"}
{"target gene": "asRNA:CR31084 (antisense RNA:CR31084)", "dsRNA": "DRSC21649", "calcium signal, replicate 1": 111, "calcium signal, replicate 2": 80.5, "Call": "inactive"}
{"target gene": "CG14756", "dsRNA": "DRSC06491", "calcium signal, replicate 1": 131, "calcium signal, replicate 2": 198, "Call": "inactive"}
